In paper PMC12455829:
No constants are given. Whether binding was seen depends on the method and setting. Binding seen in cells or lysates may run through a third protein. Here binding means that the protein was enriched with, or labelled near, the bait; the list need not be complete.

Sequences of proteins named here, by UniProt entry; tags and fusion partners are left off.
UniProt P51532: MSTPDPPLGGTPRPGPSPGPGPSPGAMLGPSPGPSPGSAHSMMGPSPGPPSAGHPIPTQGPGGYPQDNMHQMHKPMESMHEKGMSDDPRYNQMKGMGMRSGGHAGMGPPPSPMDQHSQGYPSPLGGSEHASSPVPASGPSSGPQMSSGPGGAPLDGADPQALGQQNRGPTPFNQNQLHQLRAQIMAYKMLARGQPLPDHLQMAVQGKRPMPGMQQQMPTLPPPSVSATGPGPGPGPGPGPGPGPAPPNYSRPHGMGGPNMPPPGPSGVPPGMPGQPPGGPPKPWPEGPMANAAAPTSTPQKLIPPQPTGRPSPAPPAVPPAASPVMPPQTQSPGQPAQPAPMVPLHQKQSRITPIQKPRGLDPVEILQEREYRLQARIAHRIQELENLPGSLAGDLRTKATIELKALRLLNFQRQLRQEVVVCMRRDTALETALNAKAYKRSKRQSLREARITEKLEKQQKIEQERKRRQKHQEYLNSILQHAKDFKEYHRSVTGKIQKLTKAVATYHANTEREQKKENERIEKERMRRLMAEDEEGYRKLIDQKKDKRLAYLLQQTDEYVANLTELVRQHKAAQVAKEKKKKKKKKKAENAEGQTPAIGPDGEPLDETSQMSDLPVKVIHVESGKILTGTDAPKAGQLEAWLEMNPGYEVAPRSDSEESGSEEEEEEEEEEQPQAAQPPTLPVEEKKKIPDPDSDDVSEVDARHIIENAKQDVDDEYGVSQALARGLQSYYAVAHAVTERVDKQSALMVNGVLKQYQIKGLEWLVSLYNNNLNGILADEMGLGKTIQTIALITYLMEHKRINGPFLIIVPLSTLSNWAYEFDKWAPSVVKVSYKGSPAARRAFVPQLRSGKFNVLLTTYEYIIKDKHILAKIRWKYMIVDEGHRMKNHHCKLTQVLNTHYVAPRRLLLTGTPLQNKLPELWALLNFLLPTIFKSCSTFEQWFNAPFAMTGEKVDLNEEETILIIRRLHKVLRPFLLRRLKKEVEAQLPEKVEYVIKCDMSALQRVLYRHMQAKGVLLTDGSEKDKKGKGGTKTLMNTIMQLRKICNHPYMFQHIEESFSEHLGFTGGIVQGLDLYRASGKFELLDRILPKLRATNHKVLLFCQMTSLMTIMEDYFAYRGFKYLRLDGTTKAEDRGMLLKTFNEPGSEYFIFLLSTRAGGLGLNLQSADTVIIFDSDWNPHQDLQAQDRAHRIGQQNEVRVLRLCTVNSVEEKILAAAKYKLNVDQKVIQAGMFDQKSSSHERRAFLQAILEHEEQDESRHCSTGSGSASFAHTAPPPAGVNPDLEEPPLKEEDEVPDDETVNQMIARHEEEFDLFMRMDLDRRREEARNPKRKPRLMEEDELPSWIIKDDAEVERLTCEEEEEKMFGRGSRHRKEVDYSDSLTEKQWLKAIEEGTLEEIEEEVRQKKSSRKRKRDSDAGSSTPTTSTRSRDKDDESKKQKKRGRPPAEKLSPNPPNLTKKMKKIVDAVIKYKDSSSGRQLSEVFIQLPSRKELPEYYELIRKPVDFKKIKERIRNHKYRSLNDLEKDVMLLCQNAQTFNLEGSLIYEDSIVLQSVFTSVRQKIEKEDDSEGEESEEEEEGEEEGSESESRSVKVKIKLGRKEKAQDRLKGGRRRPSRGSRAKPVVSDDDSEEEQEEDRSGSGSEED

B1: CAT (protein, UniProt P04040 1-527)
chain: MADSRDPASDQMQHWKEQRAAQKADVLTTGAGNPVGDKLNVITVGPRGPLLVQDVVFTDEMAHFDRERIPERVVHAKGAGAFGYFEVTHDITKYSKAKVFEHIGKKTPIAVRFSTVAGESGSADTVRDPRGFAVKFYTEDGNWDLVGNNTPIFFIRDPILFPSFIHSQKRNPQTHLKDPDMVWDFWSLRPESLHQVSFLFSDRGIPDGHRHMNGYGSHTFKLVNANGEAVYCKFHYKTDQGIKNLSVEDAARLSQEDPDYGIRDLFNAIATGKYPSWTFYIQVMTFNQAETFPFNPFDLTKVWPHKDYPLIPVGKLVLNRNPVNYFAEVEQIAFDPSNMPPGIEASPDKMLQGRLFAYPDTHRHRLGPNYLHIPVNCPYRARVANYQRDGPMCMQDNQGGAPNYYPNSFGAPEQQPSALEHSIQYSGEVRRFNTANDDNVTQVRAFYVNVLNEEQRKRLCENIAGHLKDAQIFIQKKAVKNFTEVHPDYGSHIQALLDKYNAEKPKNAIHTFVQSGSHLAAREKANL
B2: CDYL (protein, UniProt Q9Y232 1-598)
chain: MTFQASHRSAWGKSRKKNWQYEGPTQKLFLKRNNVSAPDGPSDPSISVSSEQSGAQQPPALQVERIVDKRKNKKGKTEYLVRWKGYDSEDDTWEPEQHLVNCEEYIHDFNRRHTEKQKESTLTRTNRTSPNNARKQISRSTNSNFSKTSPKALVIGKDHESKNSQLFAASQKFRKNTAPSLSSRKNMDLAKSGIKILVPKSPVKSRTAVDGFQSESPEKLDPVEQGQEDTVAPEVAAEKPVGALLGPGAERARMGSRPRIHPLVPQVPGPVTAAMATGLAVNGKGTSPFMDALTANGTTNIQTSVTGVTASKRKFIDDRRDQPFDKRLRFSVRQTESAYRYRDIVVRKQDGFTHILLSTKSSENNSLNPEVMREVQSALSTAAADDSKLVLLSAVGSVFCCGLDFIYFIRRLTDDRKRESTKMAEAIRNFVNTFIQFKKPIIVAVNGPAIGLGASILPLCDVVWANEKAWFQTPYTTFGQSPDGCSTVMFPKIMGGASANEMLLSGRKLTAQEACGKGLVSQVFWPGTFTQEVMVRIKELASCNPVVLEESKALVRCNMKMELEQANERECEVLKKIWGSAQGMDSMLKYLQRKIDEF
B3: ATF7 (protein, UniProt P17544 1-483)
chain: MGDDRPFVCNAPGCGQRFTNEDHLAVHKHKHEMTLKFGPARTDSVIIADQTPTPTRFLKNCEEVGLFNELASSFEHEFKKAADEDEKKAAAGPLDMSLPSTPDIKIKEEEPVEVDSSPPDSPASSPCSPPLKEKEVTPKPVLISTPTPTIVRPGSLPLHLGYDPLHPTLPSPTSVITQAPPSNRQMGSPTGSLPLVMHLANGQTMPVLPGPPVQMPSVISLARPVSMVPNIPGIPGPPVNSSGSISPSGHPIPSEAKMRLKATLTHQVSSINGGCGMVVGTASTMVTARPEQSQILIQHPDAPSPAQPQVSPAQPTPSTGGRRRRTVDEDPDERRQRFLERNRAAASRCRQKRKLWVSSLEKKAEELTSQNIQLSNEVTLLRNEVAQLKQLLLAHKDCPVTALQKKTQGYLESPKESSEPTGSPAPVIQHSSATAPSNGLSVRSAAEAVATSVLTQMASQRTELSMPIQSHVIMTPQSQSAGR
B4: FOXP4 (protein, UniProt Q8IVH2 1-680)
chain: MMVESASETIRSAPSGQNGVGSLSGQADGSSGGATGTTASGTGREVTTGADSNGEMSPAELLHFQQQQALQVARQFLLQQASGLSSPGNNDSKQSASAVQVPVSVAMMSPQMLTPQQMQQILSPPQLQALLQQQQALMLQQLQEYYKKQQEQLHLQLLTQQQAGKPQPKEALGNKQLAFQQQLLQMQQLQQQHLLNLQRQGLVSLQPNQASGPLQTLPQAAVCPTDLPQLWKGEGAPGQPAEDSVKQEGLDLTGTAATATSFAAPPKVSPPLSHHTLPNGQPTVLTSRRDSSSHEETPGSHPLYGHGECKWPGCETLCEDLGQFIKHLNTEHALDDRSTAQCRVQMQVVQQLEIQLAKESERLQAMMAHLHMRPSEPKPFSQPLNPVPGSSSFSKVTVSAADSFPDGLVHPPTSAAAPVTPLRPPGLGSASLHGGGPARRRSSDKFCSPISSELAQNHEFYKNADVRPPFTYASLIRQAILETPDRQLTLNEIYNWFTRMFAYFRRNTATWKNAVRHNLSLHKCFVRVENVKGAVWTVDEREYQKRRPPKMTGSPTLVKNMISGLSYGALNASYQAALAESSFPLLNSPGMLNPGSASSLLPLSHDDVGAPVEPLPSNGSSSPPRLSPPQYSHQVQVKEEPAEAEEDRQPGPPLGAPNPSASGPPEDRDLEEELPGEELS
B5: CTCF, P49711 1-727 (protein)
chain: MEGDAVEAIVEESETFIKGKERKTYQRRREGGQEEDACHLPQNQTDGGEVVQDVNSSVQMVMMEQLDPTLLQMKTEVMEGTVAPEAEAAVDDTQIITLQVVNMEEQPINIGELQLVQVPVPVTVPVATTSVEELQGAYENEVSKEGLAESEPMICHTLPLPEGFQVVKVGANGEVETLEQGELPPQEDPSWQKDPDYQPPAKKTKKTKKSKLRYTEEGKDVDVSVYDFEEEQQEGLLSEVNAEKVVGNMKPPKPTKIKKKGVKKTFQCELCSYTCPRRSNLDRHMKSHTDERPHKCHLCGRAFRTVTLLRNHLNTHTGTRPHKCPDCDMAFVTSGELVRHRRYKHTHEKPFKCSMCDYASVEVSKLKRHIRSHTGERPFQCSLCSYASRDTYKLKRHMRTHSGEKPYECYICHARFTQSGTMKMHILQKHTENVAKFHCPHCDTVIARKSDLGVHLRKQHSYIEQGKKCRYCDAVFHERYALIQHQKSHKNEKRFKCDQCDYACRQERHMIMHKRTHTGEKPYACSHCDKTFRQKQLLDMHFKRYHDPNFVPAAFVCSKCGKTFTRRNTMARHADNCAGPDGVEGENGGETKKSKRGRKRKMRSKKEDSSDSENAEPDLDDNEDEEEPAVEIEPEPEPQPVTPAPPPAKKRRGRPPGRTNQPKQNQPTAIIQVEDQNTGAIENIIVEVKKEPDAEPAEGEEEEAQPAATDAPNGDLTPEMILSMMDR

Each binder was assayed against FUS::DDIT3 (human (endogenous in MLS 402-91)) (assay: affinity purification with mass spectrometry; DDIT3 IP (pulls down FUS::DDIT3): biotinylated DDIT3 antibody on streptavidin magnetic beads, 50 µg nuclear extract of MLS 402-91 cells, 150 mM KCl, 10 mM Tris pH 7.5, overnight at 4 °C; TMT quantitative mass spectrometry; hits > 1.5-fold over the IgG control). Conditions: not given.

binding | Binder
binds | B1
binds | B2
binds | B3
binds | B4

These binders were tested against BRG1 (human (endogenous in MLS 402-91 and EWS TC-71)), P51532 (assay: affinity purification with mass spectrometry; BRG1 IP: biotinylated BRG1 antibody on streptavidin magnetic beads, 50 µg nuclear extract of MLS 402-91 or of EWS TC-71 cells, 150 mM KCl, 10 mM Tris pH 7.5, overnight at 4 °C; TMT quantitative mass spectrometry; hits > 1.5-fold over the IgG control). Conditions: remark: other sources report otherwise.

binding | Binder
binds | B5

These binders were tested against BRG1 (human (endogenous in MLS 402-91 and EWS TC-71)) (UniProt P51532) in the same assay as above. Conditions: not given.

binding | Binder
binds | B1
binds | B2
binds | B3
binds | B4
